Some of the results follow.

The chains behind the UniProt entries cited, without tags or fusion partners.
UniProt Q0JBA9, entry or part of it: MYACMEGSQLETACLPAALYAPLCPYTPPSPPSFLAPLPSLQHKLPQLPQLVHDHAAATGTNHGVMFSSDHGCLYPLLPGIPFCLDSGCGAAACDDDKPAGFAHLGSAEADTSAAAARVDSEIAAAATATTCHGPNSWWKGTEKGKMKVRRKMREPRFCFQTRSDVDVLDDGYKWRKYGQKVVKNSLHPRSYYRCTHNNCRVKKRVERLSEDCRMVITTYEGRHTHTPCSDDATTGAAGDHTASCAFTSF

This experiment addresses OsWRKY34 (Oryza sativa, UniProt Q0JBA9 1-250). Briefly: protein-binding microarray (RPBM); PBS, 2% BSA, 51.3 ng/ul salmon testes DNA, 50 uM zinc acetate, 200 nM TF, 25 C, 1 h; high values mean tight binding. The conditions noted are these: protein: recombinant; tags: N-terminal polyhistidine and DsRed monomer fusion (pET32a); label: CyDye5-dUTP incorporated in the synthesized complementary strand; 3' TTTTT single-stranded linker to array surface; dsDNA, one strand shown. The essentials:
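Binding signal here means per-feature fluorescence intensity in arbitrary units. The values were read on an Axon 4000B scanner after a custom Agilent array, double-stranded by primer extension with Cy5-dUTP, was incubated with 200 nM protein at 25 °C for 1 h in PBS with 2% BSA, salmon testes DNA and 50 µM zinc acetate, then washed. The proteins were transcription factors with an N-terminal polyhistidine tag and DsRed, expressed in E. coli BL21-CodonPlus and purified on Ni–NTA.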
In the case of “CTCTCTCGTTTTCCACGCGCACGCTTTCTAAAGTACTAAACGGAGTCACCTAGTGCAG”, the binding signal is 9690 fluorescence intensity (a.u.). For “TTGTGTGGATTACGTTGACTAATTAATGGCGAATTCGATCCGGAGTCACCTAGTGCAG” the value was 11700 fluorescence intensity (a.u.). In the case of “TGAACTTATTCCTACTAGAGGCTCTAATCTTTTGGCCCAACGGAGTCACCTAGTGCAG” it was 9590 fluorescence intensity (a.u.); in that of “CTGCGTTTATTTGGGTTTATTTGGGGCTGAGAGAGTACATCGGAGTCACCTAGTGCAG”, 13800 fluorescence intensity (a.u.). For “CGCACGTTAAAACTTGGGCTGGGACGCGAGGCGAGGGTTTCGGAGTCACCTAGTGCAG” the value was 8140 fluorescence intensity (a.u.); for “TGCCCTTGCTTTTCTACCATCATGACCTCCTCTACTCACACGGAGTCACCTAGTGCAG”, 8040 fluorescence intensity (a.u.); for “ATGTGGTAGGTCCTGTCGAGATTTAGTCAACTACTATTAGCGGAGTCACCTAGTGCAG”, 8720 fluorescence intensity (a.u.). Consider “TACTGAATATATTTTTGCTAACATGTTTGTTTTATATAATCGGAGTCACCTAGTGCAG”, for which the binding signal is 8540 fluorescence intensity (a.u.). For “CCAACCGATGACCCCGTGGTCACGCTCCACGCCATCCGCGCGGAGTCACCTAGTGCAG”, the binding signal was 8450 fluorescence intensity (a.u.).

For the sequence “ACTGGTGCGACTACTTCCCGGGGCTCGCCGCCGTTGACCCCGGAGTCACCTAGTGCAG”, the binding signal is 11000 fluorescence intensity (a.u.). In the case of “GCGGTCGCTATTCCTACTGCAGGTGATCCCAATCCGTTGACGGAGTCACCTAGTGCAG” it was 8340 fluorescence intensity (a.u.); in that of “CCTGTTAAAAATCACTCGCATATCTAATTATTTGGCGGATCGGAGTCACCTAGTGCAG”, 8760 fluorescence intensity (a.u.); in that of “TGTGCTTTACTTGTGCTATCCTGATGTGATGACGCCATTTCGGAGTCACCTAGTGCAG”, 8670 fluorescence intensity (a.u.).

For the sequence “GATTTTTTTTCCCTTTCAATACCGGTCCCTTTGTCAGTTACGGAGTCACCTAGTGCAG”, the binding signal was 12200 fluorescence intensity (a.u.). Turning to “GCAACTGCTGGCCATCGGCCCATATGCATGCAGCCCACACCGGAGTCACCTAGTGCAG”, the binding signal was 8760 fluorescence intensity (a.u.).

For “TTCATTCGCTCGCGCCGTCTCCGAAACCGAATCCATTTCCCGGAGTCACCTAGTGCAG”, the binding signal is 8030 fluorescence intensity (a.u.). In the case of “TGGCAAAGAATTTGTATGCTGCTCTGATTGCTCTGACCCACGGAGTCACCTAGTGCAG” it was 8680 fluorescence intensity (a.u.); in that of “AATCAGACTGCGCATCGCATTATACTCGGACGACTTACAACGGAGTCACCTAGTGCAG”, 8180 fluorescence intensity (a.u.). In the case of “TGCTCCGACCACTGCCCACCCCGCTCCACCGGCTAGAGAGCGGAGTCACCTAGTGCAG” it was 9120 fluorescence intensity (a.u.); in that of “TTGTTACCTAGACTCTCGTTGTAATATACAGATTTATGTCCGGAGTCACCTAGTGCAG”, 8790 fluorescence intensity (a.u.); in that of “GCTCTTTTCATAAAAATCTACTACTATCATATTTTTTAATCGGAGTCACCTAGTGCAG”, 8030 fluorescence intensity (a.u.). Take “TTTTTCACGGGGATGGGTCGGGGATTGTTGACTGATAAAGCGGAGTCACCTAGTGCAG”: the binding signal was 21700 fluorescence intensity (a.u.). On to “TTATACTCATGGTGAAAGTCCTATGTTTTGATCTATTCCTCGGAGTCACCTAGTGCAG”, for which the binding signal is 9400 fluorescence intensity (a.u.). For “ACCCAACTGTTCCGCGTATTGCTTTCTTCTTCTCCAAGAACGGAGTCACCTAGTGCAG” the value was 14700 fluorescence intensity (a.u.); for “CCACGATCACATTCACCTCCCATCCCACGACGTTGCTCTCCGGAGTCACCTAGTGCAG”, 8850 fluorescence intensity (a.u.); for “CAGTACGATCGCAATCGATTCTTCCATCATTATAGATACTCGGAGTCACCTAGTGCAG”, 8250 fluorescence intensity (a.u.). Consider “AGATTATTTGCCTGTCTCTAGTTTCCTGATGAACCTAATACGGAGTCACCTAGTGCAG”, for which the binding signal was 8750 fluorescence intensity (a.u.). Regarding “TTGCTGGAGCTTATTGGTTTCTTAGCCAGCGTTTCTAGTTCGGAGTCACCTAGTGCAG”, the binding signal is 8660 fluorescence intensity (a.u.). For “CTCTGTAGTTTATTTCGTAATAACAACTTTACTTTATTTTCGGAGTCACCTAGTGCAG” the value was 8910 fluorescence intensity (a.u.); for “TTATTTATTTCCAACTCAAGTTGCGGCCCATGTTAGCATGCGGAGTCACCTAGTGCAG”, 8610 fluorescence intensity (a.u.); for “GTGGGTTTGATCTATTTGGTTCCTATCTTCCATCTTCTTCCGGAGTCACCTAGTGCAG”, 10800 fluorescence intensity (a.u.). For “ACGCCGCCGCCGCCACCGCCACCGTCGCCGCCGCGCGTCCCGGAGTCACCTAGTGCAG” the value was 8400 fluorescence intensity (a.u.); for “CGGGGTCGTCGAGTCGTGCAGGGGACTCGTTGCGGTTGGGCGGAGTCACCTAGTGCAG”, 9260 fluorescence intensity (a.u.); for “GATCTTTCTGTTGACCAATTGTGCGAACAAAAGATATATTCGGAGTCACCTAGTGCAG”, 8670 fluorescence intensity (a.u.). For the sequence “TTTATAGTTTGGTGATCTTCCATTTTAAATTTGTAGTTCTCGGAGTCACCTAGTGCAG”, the binding signal was 8320 fluorescence intensity (a.u.).

“CACCCTAACAGGCACACCTACAAGATTACTTCCTCTGCTTCGGAGTCACCTAGTGCAG”: the binding signal is 9030 fluorescence intensity (a.u.). In the case of “TCCATTTGACGCAACCAAACTATTGTCTTTTCCGATATTCCGGAGTCACCTAGTGCAG” it was 8450 fluorescence intensity (a.u.). As to “GGATTTTGAGTTTTTGTTTAGATTGTTTGACCACTCGTCTCGGAGTCACCTAGTGCAG”, the binding signal was 8020 fluorescence intensity (a.u.). In the case of “GAATCCGAATCCATACTTGCCCGCCCTGCCCTTTTTTCTTCGGAGTCACCTAGTGCAG” it was 12900 fluorescence intensity (a.u.); in that of “CCCCTTTCCTACGAACTCTCCTGTCGTTCTACGGTTCTCCCGGAGTCACCTAGTGCAG”, 9500 fluorescence intensity (a.u.); in that of “CAACTTCTGAGCTCAACCTACATCCCATTCTCCGCTACTTCGGAGTCACCTAGTGCAG”, 9160 fluorescence intensity (a.u.). For “AAAAACGAGCTAAAAAACATTCAGAGGGGTCTATTTGTCTCGGAGTCACCTAGTGCAG”, the binding signal is 9890 fluorescence intensity (a.u.).

The values above are taken from PMC7819943, “Rice protein-binding microarrays: a tool to detect cis-acting elements near promoter regions in rice”.
